Test results reported in PubChem BioAssay AID192 (DTP/NCI, 2004).
The list is a part of this screen's results and no random one: it gathers tests that were run many times, whatever their T/C, doses with no T/C, and many T/C values between a quarter and a half above the control. Other doses and runs of a compound stand elsewhere. T/C is the treated group as % of the vehicle group. Some doses have a count of surviving animals in place of a T/C: the source files T/C as zero there, which appears to mark a toxic dose or a test without result, not a measured value. Some doses without a T/C left all or most animals alive at the check, yet need not have been tolerated: the source hardly ever lists a survival T/C far under the control, and the zero likely stands for such cases as well. Counts of survivors are from the toxicity check (mostly the fifth day) where no day follows; animals may have died later. Schedules are NCI's codes, read here as Q, the interval in days (D) or hours (H), X, the number of doses. Where survival is the endpoint, this PubChem deposit counts one and a half times the control or more as active, and values a quarter to a half above the control carry no call in these data; other NCI protocols may use other cut-offs. Some T/C values carry the count of animals alive at the toxicity check (mostly the fifth day); without a count, all were alive then.

System: BDF1 mice, B16 melanoma ip, median survival T/C
Assay: NCI In Vivo Anticancer Drug Screen. Data for tumor model B16 Melanoma (intraperitoneal) in B6D2F1 (BDF1) mice
Details: T/C endpoint: median survival time, higher T/C = longer survival
In short: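 Values are ratios of treated (T) to vehicle-control (C) measurements of survival or tumor size in tumor-bearing mice.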

N#CC1CS(=O)(=O)C1
survivor count (dose: 200.0 mg/kg/injection, schedule: Q04DX003 (ip), vehicle: saline with Tween-80): 4 of 10 | survivor count (dose: 400.0 mg/kg/injection, schedule: Q04DX003 (ip), vehicle: saline with Tween-80): 5 of 10

C=CCNC(=O)c1ccccc1SC(C)=O
survivor count (dose: 800.0 mg/kg/injection, schedule: Q01DX009 (ip), vehicle: saline + Tween-80 + alcohol): 0 of 10

NC(=S)N/N=C\c1ncnc2ccccc12
T/C (dose: 12.5 mg/kg/injection, schedule: Q01DX009 (ip), vehicle: Klucel (hydroxypropylcellulose) (HPC)): 133 % of control | T/C (dose: 25.0 mg/kg/injection, schedule: Q01DX009 (ip), vehicle: Klucel (hydroxypropylcellulose) (HPC)): 129 % of control | survivor count (dose: 50.0 mg/kg/injection, schedule: Q01DX009 (ip), vehicle: Klucel (hydroxypropylcellulose) (HPC)): 10 of 10

O=C(/C(=C/c1ccccc1)CBr)c1ccccc1
survivor count (dose: 4.0 mg/kg/injection, schedule: Q01DX009 (ip), vehicle: saline with Tween-80): 6 of 6 | survivor count (dose: 8.0 mg/kg/injection, schedule: Q01DX009 (ip), vehicle: saline with Tween-80): 4 of 6 | survivor count (dose: 12.5 mg/kg/injection, schedule: Q01DX009 (ip), vehicle: gum acacia): 10 of 10 | survivor count (dose: 16.0 mg/kg/injection, schedule: Q01DX009 (ip), vehicle: saline with Tween-80): 6 of 6 | survivor count (dose: 25.0 mg/kg/injection, schedule: Q01DX009 (ip), vehicle: gum acacia): 10 of 10 | survivor count (dose: 50.0 mg/kg/injection, schedule: Q01DX009 (ip), vehicle: gum acacia): 3 of 10 | survivor count (dose: 100.0 mg/kg/injection, schedule: Q04DX003 (ip), vehicle: gum acacia): 1 of 10 | survivor count (dose: 200.0 mg/kg/injection, schedule: Q04DX003 (ip), vehicle: gum acacia): 0 of 10 | survivor count (dose: 400.0 mg/kg/injection, schedule: Q04DX003 (ip), vehicle: gum acacia): 0 of 10

CC(C)=CC(=O)OC1C2C(C)=CC(=O)C(O)C2(C)C2C3(O)OCC24C(CC(=O)OC14)C(C)C3O (stereo not drawn)
T/C (dose: 0.25 mg/kg/injection, schedule: Q01DX009 (ip), vehicle: saline with Tween-80): 129 % of control | T/C (dose: 0.5 mg/kg/injection, schedule: Q01DX009 (ip), vehicle: saline with Tween-80): 131 % of control [9 of 10 alive] | T/C (dose: 1.0 mg/kg/injection, schedule: Q01DX009 (ip), vehicle: saline with Tween-80): 149 % of control [9 of 10 alive] | T/C (dose: 2.0 mg/kg/injection, schedule: Q01DX009 (ip), vehicle: saline with Tween-80): 133 % of control

O=C1CCC(=O)N1CO
T/C (dose: 150.0 mg/kg/injection, schedule: Q01DX009 (ip), vehicle: saline): 138 % of control | T/C (dose: 300.0 mg/kg/injection, schedule: Q01DX009 (ip), vehicle: saline, evaluated on day 45): 147 % of control | T/C (dose: 300.0 mg/kg/injection, schedule: Q01DX009 (ip), vehicle: saline, evaluated on day 60): 125 % of control

CCC(c1ccc(OC)cc1)C(CC)c1ccc(O)c(CN2CCN(C)CC2)c1 (stereo not drawn)
survivor count (dose: 100.0 mg/kg/injection, schedule: Q01DX009 (ip), vehicle: saline): 10 of 10
